Drawing on PubChem BioAssay AID222 (DTP/NCI, 2004), this text covers survivor count and T/C for 14 molecules.

This assay deals with C57BL/6 mice, intracerebral ependymoblastoma, median survival T/C. Kind of assay: NCI In Vivo Anticancer Drug Screen. Data for tumor model Ependymoblastoma (intracerebral) in C57BL/6 mice. The note with it: T/C endpoint: median survival time, higher T/C = longer survival. The protocol:
The antitumor activity of compounds was measured in mice bearing transplantable tumors. Survival or tumor size were measured and the results are expressed as the measurement made in the treated group (T) divided by the measurement made in the vehicle treated control group (C). The tumor model used in this assay is Ependymoblastoma (intracerebral) in C57BL/6 mice

The mark [1] stands for this setting: dose: 90.0 mg/kg/injection, schedule: Q01DX005 (ip), vehicle: saline with Tween-80.
[2] abbreviates: dose: 360.0 mg/kg/injection, schedule: Q01DX005 (ip), vehicle: saline with Tween-80.
Where [3] appears, read: dose: 720.0 mg/kg/injection, schedule: Q01DX005 (ip), vehicle: saline with Tween-80.
Setting [4] is: dose: 1440.0 mg/kg/injection, schedule: Q01DX005 (ip), vehicle: saline with Tween-80.
[5] abbreviates: dose: 128.0 mg/kg/injection, schedule: Q01DX005 (ip), vehicle: saline with Tween-80.

The list shows only some results of the screen, not a fair sample: it is rich in T/C values a quarter to a half above the control, in often repeated tests (any T/C) and in doses without a T/C. Further doses and runs are listed elsewhere. T/C gives the treated animals as a percentage of the vehicle group. Some doses have a count of surviving animals in place of a T/C: the source files T/C as zero there, which appears to mark a toxic dose or a test without result, not a measured value. Some survivor counts are full or nearly so, which does not show that the dose was tolerated: survival well below the control is almost never listed, so the zero probably covers shortened survival too. Counts of survivors are from the toxicity check (mostly the fifth day) where no day follows; animals may have died later. Schedule codes are those of the source, read here as Q, the interval in days (D) or hours (H), X, the number of doses. Some entries hold several experiments; their values stand side by side, smallest first. Some schedules carry Z or #; the key to these is not given. For survival time, this PubChem deposit counts one and a half times the control or more as active, and values a quarter to a half above the control carry no call in these data; other NCI protocols may use other cut-offs. Starred links: 1 amine or outer side, 2 acyl side, 3 side chain; linkers in the order of their positions; H or OH if unused. Positions of bridges follow the written chain, without caps; N, C: chain ends. Non-standard residues stand in square brackets, D forms with d. Residues, ends and D or L forms follow the SMILES beside them. Chains are numbered I, II in the order given. Actinocin(9to1) = Cc1c2oc3c(C)ccc(C(=O)[*:1])c3nc-2c(C(=O)[*:2])c(N)c1=O; aThr = C[C@H](O)[C@H](N)C(=O)O; NMeV = CN[C@H](C(=O)O)C(C)C; Sar = CNCC(=O)O

With `CS(C)=O`, the survivor count (dose: 3.0 grams/kg/injection, schedule: Q01DX005 (ip), vehicle: saline) is reported as 10 of 10.
Consider `ClC1=C(Cl)C2(Cl)C3C(Cl)C(Cl)CC3C1(Cl)C2(Cl)Cl` (centres undefined), for which the survivor count is 1 of 10 and 4 of 10 under setting [1]; 0 of 10 and 1 of 10 (dose: 180.0 mg/kg/injection, schedule: Q01DX005 (ip), vehicle: saline with Tween-80); 0 of 10 under setting [2]; 0 of 10 under setting [3]; 0 of 10 under setting [4].
With `CCC1=C[C@H]2CN(CCc3c([nH]c4ccccc34)[C@@](C(=O)OC)(c3cc4c(cc3OC)N(C)[C@H]3[C@@](O)(C(=O)NC)[C@H](OC(C)=O)[C@]5(CC)C=CCN6CC[C@]43[C@@H]65)C2)C1`, the survivor count (dose: 1.6 mg/kg/injection, schedule: Q01DX005 (ip), vehicle: Klucel (hydroxypropylcellulose) (HPC)) is reported as 6 of 6; the survivor count (dose: 3.2 mg/kg/injection, schedule: Q01DX005 (ip), vehicle: Klucel (hydroxypropylcellulose) (HPC)) was 6 of 6; the survivor count (dose: 6.4 mg/kg/injection, schedule: Q01DX005 (ip), vehicle: Klucel (hydroxypropylcellulose) (HPC)) is recorded as 2 of 6; the survivor count (dose: 12.8 mg/kg/injection, schedule: Q01DX005 (ip), vehicle: Klucel (hydroxypropylcellulose) (HPC)) is listed as 1 of 6.
`O=c1n(CC2CO2)c(=O)n(CC2CO2)c(=O)n1CC1CO1` (centres undefined): the T/C (dose: 30.0 mg/kg/injection, schedule: Q01DX009 (ip), vehicle: saline) was 128 % of control.
For `ClC1C(Cl)C(Cl)C(Cl)C(Cl)C1Cl` (centres undefined), the survivor count under setting [3] is 8 of 10 and 10 of 10.
As for `Nc1ccc(S(=O)(=O)c2ccc(N)cc2)cc1`, the survivor count is, setting by setting: under setting [2], 4 of 10 and 5 of 10; under setting [3], 1 of 10 and 8 of 10.
For the molecule `Nc1nncs1`, the survivor count was 10 of 10 (dose: 30.0 mg/kg/injection, schedule: Q01DX009 (ip), vehicle: Klucel (hydroxypropylcellulose) (HPC)); 10 of 10 (dose: 60.0 mg/kg/injection, schedule: Q01DX009 (ip), vehicle: Klucel (hydroxypropylcellulose) (HPC)); 6 of 10 (dose: 120.0 mg/kg/injection, schedule: Q01DX009 (ip), vehicle: Klucel (hydroxypropylcellulose) (HPC)); 10 of 10 under setting [5]; 2 of 10 (dose: 240.0 mg/kg/injection, schedule: Q01DX009 (ip), vehicle: Klucel (hydroxypropylcellulose) (HPC)); 10 of 10 (dose: 256.0 mg/kg/injection, schedule: Q01DX005 (ip), vehicle: saline with Tween-80). Moreover, where the note is “dose: 512.0 mg/kg/injection, schedule: Q01DX005 (ip), vehicle: saline with Tween-80”, the survivor count is recorded as 10 of 10.
As to `C1OC1CN1CCN(CC2CO2)CC1` (centres undefined), the survivor count by setting is: (dose: 12.5 mg/kg/injection, schedule: Q01DX005 (ip), vehicle: saline) 10 of 10; (dose: 50.0 mg/kg/injection, schedule: Q01DX005 (ip), vehicle: saline) 9 of 10; (dose: 100.0 mg/kg/injection, schedule: Q01DX005 (ip), vehicle: saline) 10 of 10.
Consider `O=S(=O)(O)O`, for which the survivor count under setting [5] is on record as 3 of 10.
As to `Cc1c2oc3c(C)ccc(C(=O)N[C@@H]4C(=O)N[C@H](C(C)C)C(=O)N5CCC[C@H]5C(=O)N(C)CC(=O)N(C)[C@@H](C(C)C)C(=O)O[C@H]4C)c3nc-2c(C(=O)N[C@@H]2C(=O)N[C@H](C(C)C)C(=O)N3CCC[C@H]3C(=O)N(C)CC(=O)N(C)[C@@H](C(C)C)C(=O)O[C@H]2C)c(N)c1=O` (I: [aThr][dV]P[Sar][NMeV] / II: [aThr][dV]P[Sar][NMeV]; ester I:1-I:C, II:1-II:C; linker I:N-II:N via Actinocin(9to1)), the survivor count is, setting by setting: (dose: 100.0 micrograms/kg/injection, schedule: Q01DX005 (ip), vehicle: saline) 6 of 6; (dose: 200.0 micrograms/kg/injection, schedule: Q01DX005 (ip), vehicle: saline) 0 of 6; (dose: 400.0 micrograms/kg/injection, schedule: Q01DX005 (ip), vehicle: saline) 0 of 6; (dose: 800.0 micrograms/kg/injection, schedule: Q01DX005 (ip), vehicle: saline) 0 of 6.
For `O=C(N[C@H](CO)[C@H](O)c1ccc([N+](=O)[O-])cc1)C(Cl)Cl`, the survivor count under setting [1] was 9 of 10, the survivor count under setting [3] was 5 of 10 and the survivor count under setting [4] is reported as 0 of 10.
For the molecule `CC(C)=CCC1=C(O)c2ccccc2C(=O)C1=O`, the survivor count (dose: 256.0 mg/kg/injection, schedule: Q01DX005 (ip), vehicle: Klucel (hydroxypropylcellulose) (HPC)) is listed as 3 of 10.
For the molecule `COc1cc(NS(C)(=O)=O)ccc1Nc1c2ccccc2nc2ccccc12`, the survivor count is 10 of 10 (dose: 4.0 mg/kg/injection, schedule: Q01DX005 (ip), vehicle: Klucel (hydroxypropylcellulose) (HPC)); 10 of 10 (dose: 4.0 mg/kg/injection, schedule: Q01DX005 (ip), vehicle: saline + alcohol); 10 of 10 (dose: 8.0 mg/kg/injection, schedule: Q01DX005 (ip), vehicle: Klucel (hydroxypropylcellulose) (HPC)); 9 of 10 and 10 of 10 (dose: 8.0 mg/kg/injection, schedule: Q01DX005 (ip), vehicle: saline + alcohol); 10 of 10 (dose: 8.0 mg/kg/injection, schedule: Q01DX005 (ip), vehicle: water); 8 of 10 and 10 of 10 (dose: 16.0 mg/kg/injection, schedule: Q01DX005 (ip), vehicle: Klucel (hydroxypropylcellulose) (HPC)). Further, the survivor count is, setting by setting: (dose: 16.0 mg/kg/injection, schedule: Q01DX005 (ip), vehicle: saline + alcohol) 5 of 10 and 10 of 10; (dose: 16.0 mg/kg/injection, schedule: Q01DX005 (ip), vehicle: water) 10 of 10; (dose: 16.0 mg/kg/injection, schedule: Q#A X002 (ip), vehicle: Klucel (hydroxypropylcellulose) (HPC)) 1 of 10; (dose: 64.0 mg/kg/injection, schedule: Q01DX001 (ip), vehicle: Klucel (hydroxypropylcellulose) (HPC)) 8 of 10 and 9 of 10; (dose: 128.0 mg/kg/injection, schedule: Q#A X002 (ip), vehicle: Klucel (hydroxypropylcellulose) (HPC)) 0 of 10; (dose: 256.0 mg/kg/injection, schedule: Q01DX001 (oral), vehicle: Klucel (hydroxypropylcellulose) (HPC)) 9 of 10. Also, the survivor count (dose: 256.0 mg/kg/injection, schedule: Q#A X002 (ip), vehicle: Klucel (hydroxypropylcellulose) (HPC)) is 0 of 10.
With `O=[N+]([O-])O.[Ga]`, the survivor count (dose: 64.0 mg/kg/injection, schedule: Q01DX005 (ip), vehicle: saline) is given as 10 of 10; the survivor count (dose: 128.0 mg/kg/injection, schedule: Q01DX005 (ip), vehicle: saline) was 10 of 10; the survivor count (dose: 256.0 mg/kg/injection, schedule: Q01DX005 (ip), vehicle: saline) is listed as 8 of 10.
